# From doi:10.1101/2023.04.14.536847
# Target: CdbS-FLAG (Myxococcus xanthus)
# Assay: affinity purification with mass spectrometry
row,Binder,binding
1,"DnaB helicase (protein, UniProt Q1D285 1-456) MENVHEFREGRKVHEDLAAERAVLGAVLADNTLIAAVGEVVHPEDFSSPAHAQIFEAMLKLDGQSRQVDHLTLAEELKVLGHLVSVGGPAYLMRLDQVVPIASNAVQYAQIVKDQAIRRRLAQAGREIQDLASQETGELEVLLDEAERKVFLLAEKKREGDLRPVSELMEHTLDLLDKMKAAATGITGLSTGYIDLDNQLTGLHAGELIILAARPGIGKTSFAMNIAVHAALKENKAVGIFSLEMPADQLLMRLLASTARVDMKKLRGGRLTPHDEEKFQEMAGALYNAPIYIDDSGGLSPFDLRAKARRVKQRDPRLSLIVIDYLQLMHQKGKVESRQLEVAEISRALKQLAKELEVPIIALSQLSRKVEDRKDGKPLLSDLRESGSIEQDADVVMFIHRETSDEAGPDGQPAQQSNTVIPVELIIAKQRNGPIGSIDLVFLAEYTRFESRSRSE",binds
2,"GrpS (protein, UniProt P95333 1-255) MTVIEVEASGPSTPVEAEASASPADTTSPPSDAEATPSEDVAALRQEVESLKAQLEFSQAKGRETMERLREAHERAKEAQERTVRHAADLENYRKRAQKEKEEVQRFGSEKLLKDLLPVMDNLDRAIDAAAKSPDLDSFEKGVAMTRKSFEDALGRHGVKGFSAKGQVFDPRVHEAIQQVETADVPAGHVAYEVVRGFYLNERLVRPAMVVVARAPAEPVAAAEPPAVAEPATATTDTEAPAAPAQSENSSGGSQ",binds

# These are yes or no findings as the source states them, for the method shown. In cells and extracts the contact can be indirect. A yes stands for co-enrichment or nearness to the bait. Other partners may have been found.
